Data source: PubChem BioAssay AID743454 (Peter MacCallum Cancer Centre, 2014)
The whole screen tested about 18,000 reagents; shown is a random part of them. 450 of them (2.5%) count as active. 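Single biological run; no consistent viability z cut-off exists, so the class columns, not z-scores, define the calls.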

- Test: 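Genes whose loss kills vorinostat-resistant colon cancer cells under vorinostat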 (primary screen)
- System: human HCT116-VR colon cancer cells, selected for vorinostat resistance
- Knock-down reagent: siRNA pool against human genes, 40 nM siRNA pool
- Duration: vorinostat for 24 h, read-out about 72 h after transfection
- Treatment: vorinostat at 2.5 µM final
- Measured: 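Cell viability by CellTiter-Fluor and caspase 3/7 activity by luminescence, each scaled to mock wells per plate, duplicates averaged, then robust z-scored over all plates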
- Reading the numbers: viability robust z-score: higher = more viable cells than screen typical; caspase robust z-score: higher = more caspase 3/7 activity than screen typical
- Active means: 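a knock-down is a hit when classed RV1 or RV2 for lowered viability, or CA1 or CA2 for caspase activation; those lethal without drug were dropped; hits were retested singly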

| gene | viability hit class | caspase hit class | viability robust z-score | caspase robust z-score | Outcome |
| --- | --- | --- | --- | --- | --- |
| DUSP29 | no change | no change | -0.62 | 1.42 | inactive |
| TAPBP | no change | no change | -2.76 | -0.43 | inactive |
| ARHGAP9 | no change | no change | -0.84 | 0.33 | inactive |
| LTK | no change | no change | 0.06 | 1.1 | inactive |
| CFAP91 | no change | no change | -0.58 | 1.17 | inactive |
| HAVCR1 | no change | no change | 0.57 | -0.28 | inactive |
| NRAS | no change | no change | 0.5 | 0.12 | inactive |
| RSBN1L | no change | no change | -0.12 | -0.76 | inactive |
| GNG13 | no change | no change | -0.48 | -0.59 | inactive |
| CCT7 | no change | no change | -1.17 | -0.35 | inactive |
| SFSWAP | no change | no change | -2.34 | 3.91 | inactive |
| MAGOHB | no change | no change | 1.28 | -0.74 | inactive |
| RPA2 | no change | CA2 (caspase activation) | 0.12 | 5.3 | active |
| ANAPC16 | no change | no change | 1.18 | -0.6 | inactive |
| PRPF18 | no change | no change | -0.76 | -0.74 | inactive |
| CFAP57 | no change | no change | 1.5 | -0.34 | inactive |
| SLMAP | no change | no change | -0.9 | 1.84 | inactive |
| PPIA | no change | no change | 0.1 | 0.04 | inactive |
| TMEM229B | no change | no change | -1.56 | -0.98 | inactive |
| NOSIP | no change | no change | 0.69 | -0.98 | inactive |
| RUFY3 | no change | no change | -0.73 | 0.19 | inactive |
| LMTK2 | no change | no change | 0.86 | 3.18 | inactive |
| PPRC1 | no change | no change | 0.5 | 0.18 | inactive |
| DLK2 | no change | no change | -1.27 | 1.15 | inactive |
| KCNIP1 | no change | no change | -0.6 | 0.84 | inactive |
| SPG21 | no change | no change | -0.26 | 0.47 | inactive |
| MORN4 | no change | no change | 0.68 | 1.77 | inactive |
| LGSN | no change | no change | -0.04 | 1.06 | inactive |
| EP400 | no change | no change | -0.48 | -0.78 | inactive |
| MYO1D | no change | no change | -0.04 | 0.71 | inactive |
| SV2A | no change | no change | 0.48 | -0.95 | inactive |
| NABP1 | no change | no change | 0.4 | 0.72 | inactive |
| FMO3 | no change | no change | -0.49 | -0.86 | inactive |
| COX4I2 | no change | no change | -0.52 | 3.96 | inactive |
| TMEM219 | no change | no change | -2.49 | 2.4 | inactive |
| CEP112 | no change | no change | 0.75 | -0.3 | inactive |
| PHLDA2 | no change | no change | 0.81 | 1.44 | inactive |
| SYT10 | no change | no change | 0.19 | -1.1 | inactive |
| MIS12 | no change | no change | -1.25 | 2.09 | inactive |

A run of entries from the list above, as a working copy:
| gene | viability hit class | caspase hit class | viability robust z-score | caspase robust z-score | Outcome |
| --- | --- | --- | --- | --- | --- |
| FMO3 | no change | no change | -0.49 | -0.86 | inactive |
| COX4I2 | no change | no change | -0.52 | 3.96 | inactive |
| TMEM219 | no change | no change | -2.49 | 2.4 | inactive |
| CEP112 | no change | no change | 0.75 | -0.3 | inactive |
